Source: PubChem BioAssay AID504791 (Drosophila RNAi Screening Center, 2011)
Test: 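Factors in Argonaute-based small RNA production and activity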 (primary screen). Cells: Drosophila S2-derived reporter cells. Reagents: long dsRNA against Drosophila genes, about 150-250 ng dsRNA per well (siRNA assay); about 80-120 ng (miRNA assay). Timing: about 5 days (siRNA assay); about 4 days (miRNA assay). Challenge: copper sulfate induction of reporters: 25 µM (siRNA assay); 200 mM stated (miRNA assay), 1-2 days before reading. Measurement: 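Dual luciferase assay: Renilla to firefly signal ratio in each well, scaled to the mean ratio of its plate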. Rule for the call: 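a well was a first-pass pick when its plate-scaled ratio rose above 1.5 (siRNA assay) or 1.6 (miRNA assay), or dropped below 0.6; a gene counted only if two separate dsRNAs agreed on retest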.
In all, the deposit lists about 23,000 reagents; this is an unselected part of those with a known target gene and a result. In the full data, 199 (0.86%) were called active. 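Plate-scaled ratios behind the calls are not deposited; printed light signals are raw; many rows marked increased or decreased are still called inactive.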 Entries without a mark were called inactive. Reagents against one gene are numbered here. Names joined by + are all predicted targets of the reagent. Not given: the direction of the score.

Target gene	reagent	stable siRNA reporter change	miRNA reporter change	stable assay Renilla, run 1 (luminescence)	stable assay firefly, run 1 (luminescence)
CG10237	1			15845	1.62e6
CG11779 + CG5835	1			8023	2.72e5
natalisin	1			6231	3.18e5
natalisin	2			8101	6.43e5
Vha16-3	1			7076	3.67e5
CG32813	1			5379	3.67e5
Lk6	1			4771	3.24e5
Lk6	2			7380	5.64e5
pea	1			8030	3.89e5
CG14448	1			6780	3.57e5
Dnz1	1			6598	6.45e5
MFS14	1			2603	3.24e5
noi	1			10270	8.32e5
noi	2		reporter ratio lowered past the hit cutoff (active)		
M1BP	1			7246	3.84e5
CG32713	1			4383	4.05e5
Kif19A	1			4144	3.87e5
Prp5	1			5147	5.41e5
homer	1			12336	7.18e5
CG32040	1			4979	3.50e5
CG32040	2			4120	3.68e5
Osi13	1			6498	4.48e5
Cyp6a23	1			6835	3.46e5
MetRS-m	1			8243	4.22e5
MetRS-m	2			7586	6.18e5
CG33080	1			7148	4.49e5
CG33080	2			7914	5.12e5
CG33080	3			6279	3.67e5
Max	1			7760	3.36e5
pit	1			6546	3.10e5
pit	2			3867	4.35e5
pit	3		reporter ratio raised past the hit cutoff		
mnd	1			7527	3.30e5
Npc2e	1			6163	3.40e5
Npc2e	2			8719	5.65e5
CheA87a	1			7167	3.52e5
unc-119	1			6234	3.70e5
Abp1	1			6515	3.48e5
Menl-2 + Menl-1	1			6370	3.73e5
Menl-2 + Menl-1	2			6891	3.41e5
CG17652	1			7018	3.89e5
alka	1			6442	3.39e5
CG11560	1			6631	3.33e5
rad (retired record)	1			3360	3.73e5
rad (retired record)	2			4350	5.42e5
GstE12	1			7819	4.19e5
kune	1			6599	4.12e5
CG6790	1			8328	6.15e5
CG14797	1			7398	3.92e5
Eno	1			6682	4.37e5
Gapdh2	1			5091	3.00e5
Ekar	1			6719	3.38e5
bib	1			37516	7.55e5
CG12817 + CG12420	1			4092	3.50e5
TwdlF	1			7326	2.99e5
CG42699	1			7035	4.05e5
CG42699	2			5835	2.51e5
CG12111	1			5468	2.74e5
intr	1			7668	3.86e5
topi	1			6963	3.72e5
Rbfox1	1			4011	3.74e5
Rbfox1	2			2871	1.88e5
Rbfox1	3			5532	3.14e5
Rbfox1	4			9333	6.97e5
Rbfox1	5			6538	5.38e5
PGRP-LF	1		reporter ratio lowered past the hit cutoff		
Pop1	1			6750	5.19e5
DCTN1-p150	1			10071	4.25e5
U4-U6-60K	1			7748	2.57e5
nerfin-2	1			6027	3.16e5
CG31021	1	reporter ratio raised past the hit cutoff		8369	1.26e5
Polr3B	1			8929	5.82e5
ppk11	1			7231	3.22e5
Elba1	1			6967	3.73e5
crol	1			12646	4.57e5
crol	2			8208	5.03e5
CG4074 + CG4186	1			6998	3.65e5
Sec24AB	1			8494	4.23e5
Dis3l2	1			10311	4.63e5
Gnpnat	1			10126	5.71e5
CG17270	1			8574	4.38e5
CG3565	1			44744	1.59e6
Osi9	1			4972	4.58e5
